Our source for the binding values is paper PMC7402468.

The chains behind the UniProt entries cited, without tags or fusion partners.
UniProt P51140: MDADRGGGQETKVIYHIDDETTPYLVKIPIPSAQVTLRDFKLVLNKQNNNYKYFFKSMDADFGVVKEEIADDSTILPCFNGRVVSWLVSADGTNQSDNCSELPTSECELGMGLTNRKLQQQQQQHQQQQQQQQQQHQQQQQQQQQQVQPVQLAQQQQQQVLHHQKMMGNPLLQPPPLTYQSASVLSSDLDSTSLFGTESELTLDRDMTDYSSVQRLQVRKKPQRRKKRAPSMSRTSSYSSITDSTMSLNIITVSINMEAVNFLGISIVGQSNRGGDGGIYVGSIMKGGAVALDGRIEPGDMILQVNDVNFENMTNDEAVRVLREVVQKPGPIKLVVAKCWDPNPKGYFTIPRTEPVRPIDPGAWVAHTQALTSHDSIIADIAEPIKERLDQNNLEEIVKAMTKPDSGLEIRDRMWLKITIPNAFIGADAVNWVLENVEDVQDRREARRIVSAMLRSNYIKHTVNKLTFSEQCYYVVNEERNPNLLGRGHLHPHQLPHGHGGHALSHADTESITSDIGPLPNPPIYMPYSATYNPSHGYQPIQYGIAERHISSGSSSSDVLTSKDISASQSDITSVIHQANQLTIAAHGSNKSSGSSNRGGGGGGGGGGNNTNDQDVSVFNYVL

In test [1] the target is T1, Myc-tagged Bride of Doubletime (Myc-Bdbt) (Drosophila) (UniProt Q9VDE4).
T1 sequence: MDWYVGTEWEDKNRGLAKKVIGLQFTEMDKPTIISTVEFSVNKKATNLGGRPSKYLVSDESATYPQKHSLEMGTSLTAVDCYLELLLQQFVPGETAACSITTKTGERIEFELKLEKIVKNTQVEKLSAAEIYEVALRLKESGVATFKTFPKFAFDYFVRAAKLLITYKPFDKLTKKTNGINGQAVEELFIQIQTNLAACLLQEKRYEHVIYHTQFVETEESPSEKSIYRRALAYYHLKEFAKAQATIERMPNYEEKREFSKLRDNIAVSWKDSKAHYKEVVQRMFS
Description: co-IP; S2 cells transfected with Dsh-ECFP and either Myc-DAnkrd49 or Myc-Bdbt; immunoprecipitation with Myc antibody resin in RIPA buffer (50 mM Tris-HCl pH 7.5, 100 mM NaCl, 1% NP-40, 0.5% sodium deoxycholate, 0.1% SDS); western blot with anti-GFP.

The target in test [2] is T2, Myc-tagged DAnkrd49 (Myc-DAnkrd49) (Drosophila) (UniProt Q9V3Y0).
T2 sequence: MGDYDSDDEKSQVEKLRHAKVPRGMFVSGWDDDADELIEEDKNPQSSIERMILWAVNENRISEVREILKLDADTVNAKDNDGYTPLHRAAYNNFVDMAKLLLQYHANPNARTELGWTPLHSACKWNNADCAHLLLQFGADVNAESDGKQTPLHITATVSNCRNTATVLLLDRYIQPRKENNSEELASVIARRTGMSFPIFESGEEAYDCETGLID
The description is as above.

Test [3] concerns the target T3, EGFP-tagged Bride of Doubletime (Bdbt-EGFP) (Drosophila) (UniProt Q9VDE4).
T3 sequence: T1 sequence
Description: co-IP; Bdbt-EGFP and Myc-DAnkrd49 co-transfected into Drosophila S2 cells; immunoprecipitation with GFP rabbit serum in 50 mM Tris-HCl pH 7.5, 150 mM NaCl, 1% TritonX-100, protease inhibitors; western blot with anti-Myc. (In western blotting, separated proteins are transferred to a membrane and probed.)

These are yes or no findings as the source states them, for the method shown. In cells and extracts the contact can be indirect. Some results given as binding are weak or reduced against the parent protein; the word gives no strength. Tags and fused reporters may be left off the sequences shown.

Take “Dishevelled-ECFP (Dsh-ECFP) (from UniProt P51140 1-623)”: the binding entry in test [1] and in test [2] was “no binding” throughout.

B1: Myc-tagged DAnkrd49 (Myc-DAnkrd49) (protein, UniProt Q9V3Y0 1-215)
chain: T2 sequence
On to B1, for which, in test [3], the binding entry is given as “binds”.
